Data taken from the supplement of paper PMC10060354, “Discovery of a small molecule ligand of FRS2 that inhibits invasion and tumor growth” (Cellular Oncology, 2022).

Sequences of proteins named here, by UniProt entry; tags and fusion partners are left off. A change or cut given only in a name is not applied to a line headed by its entry.
UniProt Q9NQZ5: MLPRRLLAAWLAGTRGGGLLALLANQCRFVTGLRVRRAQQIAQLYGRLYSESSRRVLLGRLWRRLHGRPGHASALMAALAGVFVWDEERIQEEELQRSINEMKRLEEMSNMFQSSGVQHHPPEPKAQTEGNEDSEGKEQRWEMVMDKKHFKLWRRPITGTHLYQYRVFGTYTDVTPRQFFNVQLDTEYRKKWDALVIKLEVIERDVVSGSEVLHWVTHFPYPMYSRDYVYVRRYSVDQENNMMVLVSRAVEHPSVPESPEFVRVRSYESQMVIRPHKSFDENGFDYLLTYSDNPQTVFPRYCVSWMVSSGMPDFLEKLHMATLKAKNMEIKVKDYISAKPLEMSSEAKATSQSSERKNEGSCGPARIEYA
UniProt Q6NXT6: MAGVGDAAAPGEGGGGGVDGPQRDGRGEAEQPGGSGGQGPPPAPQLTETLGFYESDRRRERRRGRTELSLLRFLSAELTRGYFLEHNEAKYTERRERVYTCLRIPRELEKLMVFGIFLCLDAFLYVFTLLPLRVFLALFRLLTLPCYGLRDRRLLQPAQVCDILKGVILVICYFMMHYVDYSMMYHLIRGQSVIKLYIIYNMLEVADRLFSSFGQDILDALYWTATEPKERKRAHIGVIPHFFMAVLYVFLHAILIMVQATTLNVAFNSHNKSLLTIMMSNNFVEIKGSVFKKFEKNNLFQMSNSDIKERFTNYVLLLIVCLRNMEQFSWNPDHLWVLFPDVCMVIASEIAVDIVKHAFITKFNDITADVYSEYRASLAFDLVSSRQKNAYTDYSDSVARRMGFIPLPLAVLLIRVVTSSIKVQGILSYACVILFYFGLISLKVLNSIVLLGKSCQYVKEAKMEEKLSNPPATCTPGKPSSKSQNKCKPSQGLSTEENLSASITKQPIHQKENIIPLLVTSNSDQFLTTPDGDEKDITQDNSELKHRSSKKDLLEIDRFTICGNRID
UniProt Q9H6K4: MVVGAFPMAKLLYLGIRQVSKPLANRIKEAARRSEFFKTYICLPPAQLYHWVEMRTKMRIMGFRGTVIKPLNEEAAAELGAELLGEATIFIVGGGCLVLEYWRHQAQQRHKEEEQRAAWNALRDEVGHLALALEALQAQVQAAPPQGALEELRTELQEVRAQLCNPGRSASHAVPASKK
UniProt Q9NYM9: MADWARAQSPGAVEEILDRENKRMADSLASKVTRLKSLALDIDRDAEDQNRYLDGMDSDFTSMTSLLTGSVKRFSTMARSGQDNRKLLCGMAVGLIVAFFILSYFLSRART
UniProt Q9BUR4: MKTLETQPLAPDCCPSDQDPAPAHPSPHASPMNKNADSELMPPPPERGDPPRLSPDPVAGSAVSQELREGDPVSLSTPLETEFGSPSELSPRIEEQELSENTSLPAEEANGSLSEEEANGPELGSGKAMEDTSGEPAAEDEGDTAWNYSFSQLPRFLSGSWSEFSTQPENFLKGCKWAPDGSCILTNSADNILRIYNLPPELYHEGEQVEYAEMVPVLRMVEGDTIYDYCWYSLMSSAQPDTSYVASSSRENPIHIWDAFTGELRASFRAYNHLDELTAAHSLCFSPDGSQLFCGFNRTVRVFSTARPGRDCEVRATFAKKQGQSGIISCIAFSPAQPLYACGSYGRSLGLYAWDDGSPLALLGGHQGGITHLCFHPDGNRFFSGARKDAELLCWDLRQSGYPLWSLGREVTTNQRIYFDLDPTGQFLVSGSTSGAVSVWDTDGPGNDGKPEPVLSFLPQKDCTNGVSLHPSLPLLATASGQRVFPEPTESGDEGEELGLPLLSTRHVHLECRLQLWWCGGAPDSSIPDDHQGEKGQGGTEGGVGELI
UniProt Q14192: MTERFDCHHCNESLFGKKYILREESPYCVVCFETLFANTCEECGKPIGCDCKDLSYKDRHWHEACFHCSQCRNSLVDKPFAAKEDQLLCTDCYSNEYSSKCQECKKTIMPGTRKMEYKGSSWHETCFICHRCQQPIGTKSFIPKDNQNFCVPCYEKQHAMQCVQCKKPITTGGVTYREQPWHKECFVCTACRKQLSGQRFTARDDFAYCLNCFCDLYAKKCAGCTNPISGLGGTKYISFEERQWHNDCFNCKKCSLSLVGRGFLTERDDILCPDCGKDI
UniProt P14174: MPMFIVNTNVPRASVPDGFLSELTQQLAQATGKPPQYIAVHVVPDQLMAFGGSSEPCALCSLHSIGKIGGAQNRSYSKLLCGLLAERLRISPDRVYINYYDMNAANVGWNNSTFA
UniProt P43897: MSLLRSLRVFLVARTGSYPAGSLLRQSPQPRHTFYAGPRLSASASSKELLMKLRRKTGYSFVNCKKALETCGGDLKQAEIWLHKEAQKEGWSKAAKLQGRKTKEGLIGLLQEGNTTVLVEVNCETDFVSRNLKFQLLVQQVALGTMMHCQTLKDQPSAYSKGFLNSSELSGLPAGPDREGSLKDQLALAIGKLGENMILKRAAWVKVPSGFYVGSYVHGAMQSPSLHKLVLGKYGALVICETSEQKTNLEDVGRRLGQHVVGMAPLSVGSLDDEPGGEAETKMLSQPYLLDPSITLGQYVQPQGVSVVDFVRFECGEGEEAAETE
UniProt Q15181: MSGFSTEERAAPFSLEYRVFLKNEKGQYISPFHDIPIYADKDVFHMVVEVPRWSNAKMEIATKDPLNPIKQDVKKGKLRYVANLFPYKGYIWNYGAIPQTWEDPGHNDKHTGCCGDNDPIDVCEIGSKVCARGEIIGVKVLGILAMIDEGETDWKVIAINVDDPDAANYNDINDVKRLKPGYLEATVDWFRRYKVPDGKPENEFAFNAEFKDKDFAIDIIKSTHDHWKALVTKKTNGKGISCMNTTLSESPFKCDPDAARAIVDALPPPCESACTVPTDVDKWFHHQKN
UniProt P50990: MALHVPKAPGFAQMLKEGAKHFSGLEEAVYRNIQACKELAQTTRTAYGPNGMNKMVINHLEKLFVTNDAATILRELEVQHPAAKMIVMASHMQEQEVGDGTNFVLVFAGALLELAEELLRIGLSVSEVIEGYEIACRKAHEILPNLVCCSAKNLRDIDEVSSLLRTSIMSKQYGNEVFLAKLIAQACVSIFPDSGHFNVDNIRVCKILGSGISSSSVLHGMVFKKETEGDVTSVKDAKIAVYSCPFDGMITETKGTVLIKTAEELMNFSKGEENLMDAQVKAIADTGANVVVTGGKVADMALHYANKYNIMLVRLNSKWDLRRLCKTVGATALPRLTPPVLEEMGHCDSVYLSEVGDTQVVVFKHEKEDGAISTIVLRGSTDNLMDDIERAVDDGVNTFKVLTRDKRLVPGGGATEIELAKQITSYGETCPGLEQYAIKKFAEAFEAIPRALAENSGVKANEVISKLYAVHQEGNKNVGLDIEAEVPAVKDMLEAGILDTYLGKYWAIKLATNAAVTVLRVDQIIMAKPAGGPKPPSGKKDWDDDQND
UniProt Q9C0B0: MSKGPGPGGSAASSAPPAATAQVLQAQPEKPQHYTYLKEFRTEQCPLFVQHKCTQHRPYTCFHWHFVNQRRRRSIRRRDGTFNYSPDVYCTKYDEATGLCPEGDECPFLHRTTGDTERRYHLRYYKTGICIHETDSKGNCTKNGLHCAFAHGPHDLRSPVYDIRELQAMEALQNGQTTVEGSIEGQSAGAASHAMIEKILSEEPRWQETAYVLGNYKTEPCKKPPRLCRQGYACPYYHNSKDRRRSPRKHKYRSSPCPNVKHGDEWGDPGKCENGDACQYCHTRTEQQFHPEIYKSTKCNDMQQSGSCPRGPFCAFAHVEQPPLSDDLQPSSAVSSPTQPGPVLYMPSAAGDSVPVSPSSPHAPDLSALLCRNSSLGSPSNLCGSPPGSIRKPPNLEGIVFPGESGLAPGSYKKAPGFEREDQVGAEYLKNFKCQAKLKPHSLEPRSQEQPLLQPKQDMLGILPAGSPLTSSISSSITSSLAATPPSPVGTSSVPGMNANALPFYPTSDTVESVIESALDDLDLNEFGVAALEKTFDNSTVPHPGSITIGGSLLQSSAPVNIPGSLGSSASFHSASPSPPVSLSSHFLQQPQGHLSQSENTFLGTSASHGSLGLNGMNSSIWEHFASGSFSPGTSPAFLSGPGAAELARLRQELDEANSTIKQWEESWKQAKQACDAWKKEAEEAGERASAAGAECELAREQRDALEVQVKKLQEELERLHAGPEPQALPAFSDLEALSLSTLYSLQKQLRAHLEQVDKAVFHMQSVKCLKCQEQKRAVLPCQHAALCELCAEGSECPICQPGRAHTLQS
UniProt Q9UBS8: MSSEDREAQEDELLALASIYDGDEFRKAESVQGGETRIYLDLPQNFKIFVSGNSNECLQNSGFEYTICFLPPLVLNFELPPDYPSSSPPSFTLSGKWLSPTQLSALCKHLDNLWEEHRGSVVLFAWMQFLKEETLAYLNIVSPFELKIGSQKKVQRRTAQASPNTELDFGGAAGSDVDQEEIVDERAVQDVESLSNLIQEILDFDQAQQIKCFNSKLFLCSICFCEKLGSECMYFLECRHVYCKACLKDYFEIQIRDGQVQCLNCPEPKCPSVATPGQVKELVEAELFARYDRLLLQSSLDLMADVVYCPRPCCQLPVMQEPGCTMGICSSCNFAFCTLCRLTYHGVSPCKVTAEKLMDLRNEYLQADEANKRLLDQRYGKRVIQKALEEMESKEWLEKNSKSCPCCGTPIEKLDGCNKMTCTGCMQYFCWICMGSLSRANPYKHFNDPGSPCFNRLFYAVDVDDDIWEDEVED
UniProt P28161: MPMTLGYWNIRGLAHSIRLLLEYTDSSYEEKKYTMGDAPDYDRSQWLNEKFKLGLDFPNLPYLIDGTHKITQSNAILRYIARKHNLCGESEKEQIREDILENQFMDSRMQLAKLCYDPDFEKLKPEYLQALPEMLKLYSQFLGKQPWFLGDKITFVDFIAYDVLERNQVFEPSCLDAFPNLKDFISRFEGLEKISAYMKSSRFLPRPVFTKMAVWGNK
UniProt O95571: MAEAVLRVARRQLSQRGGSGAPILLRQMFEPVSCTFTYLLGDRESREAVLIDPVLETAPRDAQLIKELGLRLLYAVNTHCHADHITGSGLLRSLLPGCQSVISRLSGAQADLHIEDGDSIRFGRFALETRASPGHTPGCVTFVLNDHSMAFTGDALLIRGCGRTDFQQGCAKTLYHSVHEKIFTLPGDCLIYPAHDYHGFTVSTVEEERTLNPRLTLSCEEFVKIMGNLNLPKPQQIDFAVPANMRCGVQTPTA
UniProt Q99714: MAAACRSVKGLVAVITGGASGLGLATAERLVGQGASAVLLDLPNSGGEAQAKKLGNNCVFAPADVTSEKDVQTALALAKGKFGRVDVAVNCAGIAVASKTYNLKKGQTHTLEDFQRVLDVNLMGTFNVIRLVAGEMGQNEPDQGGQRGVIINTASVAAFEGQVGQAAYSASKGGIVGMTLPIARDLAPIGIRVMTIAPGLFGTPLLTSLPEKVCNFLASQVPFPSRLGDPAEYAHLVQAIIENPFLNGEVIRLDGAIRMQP
UniProt P50402: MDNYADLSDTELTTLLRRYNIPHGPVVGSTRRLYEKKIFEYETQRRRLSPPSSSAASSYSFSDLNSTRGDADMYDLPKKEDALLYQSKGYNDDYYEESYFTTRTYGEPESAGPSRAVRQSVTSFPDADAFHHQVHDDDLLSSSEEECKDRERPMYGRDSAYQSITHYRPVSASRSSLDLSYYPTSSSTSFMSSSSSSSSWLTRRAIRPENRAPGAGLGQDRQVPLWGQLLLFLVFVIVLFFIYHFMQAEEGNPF
UniProt P60468, whole entry: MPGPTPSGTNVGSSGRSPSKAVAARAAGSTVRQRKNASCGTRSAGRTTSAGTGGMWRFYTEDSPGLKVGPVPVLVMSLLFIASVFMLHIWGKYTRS
UniProt Q6ZN28: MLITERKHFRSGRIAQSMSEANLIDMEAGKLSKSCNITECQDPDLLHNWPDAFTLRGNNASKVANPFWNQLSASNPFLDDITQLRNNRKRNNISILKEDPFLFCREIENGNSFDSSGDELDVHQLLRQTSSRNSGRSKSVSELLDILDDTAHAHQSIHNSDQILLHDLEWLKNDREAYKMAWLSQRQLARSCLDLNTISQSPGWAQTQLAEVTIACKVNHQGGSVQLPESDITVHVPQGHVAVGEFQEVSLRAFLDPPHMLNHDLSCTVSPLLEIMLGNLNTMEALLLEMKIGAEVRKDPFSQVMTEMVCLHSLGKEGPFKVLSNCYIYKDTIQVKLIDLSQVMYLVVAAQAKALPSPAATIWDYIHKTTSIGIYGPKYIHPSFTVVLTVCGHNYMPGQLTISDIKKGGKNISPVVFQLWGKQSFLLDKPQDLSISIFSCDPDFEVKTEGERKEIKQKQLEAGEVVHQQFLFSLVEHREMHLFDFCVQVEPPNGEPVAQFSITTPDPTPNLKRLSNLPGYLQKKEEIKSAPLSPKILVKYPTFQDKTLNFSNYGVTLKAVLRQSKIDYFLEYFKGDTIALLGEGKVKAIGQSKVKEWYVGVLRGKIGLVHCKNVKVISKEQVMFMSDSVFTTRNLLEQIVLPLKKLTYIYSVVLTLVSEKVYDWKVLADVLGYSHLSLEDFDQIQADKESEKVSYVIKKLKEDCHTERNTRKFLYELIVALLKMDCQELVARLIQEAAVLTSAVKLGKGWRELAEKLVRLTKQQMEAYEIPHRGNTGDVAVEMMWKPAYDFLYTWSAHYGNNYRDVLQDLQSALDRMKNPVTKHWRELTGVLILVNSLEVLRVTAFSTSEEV

Compound: [O-][N+](C(C1=C(C(O)=C2)NC(C(C=C3)=CC=C3Cl)C4C1C=CC4)=C2Cl)=O
Assay: melting temperature shift (compound 7 minus DMSO); higher = compound stabilises the protein
Settings: 10 µM
Procedure: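 Thermal proteome profiling (TMT mass spectrometry) in intact DAOY medulloblastoma cells or DAOY lysates treated with 10 µM compound 7 or DMSO, heated at 10 temperatures from 40.5 to 73.8 °C for 3 min. Melting curves were fitted with the Bioconductor TPP package, and the melting point difference between compound and vehicle is reported per protein (single curve per condition).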

[1] = system: DAOY cell lysate, treatment time: 20 min, 4 °C
[2] = system: intact DAOY cells, treatment time: 90 min, 37 °C

| Target | melting temperature shift [1] | melting temperature shift [2] |
| --- | --- | --- |
| STARD7 (UniProt Q9NQZ5) | 0.313 °C | 0.806 °C |
| TAPT1 (UniProt Q6NXT6) | 2.01 °C | -0.466 °C |
| UniProt Q5TZA2 | -0.0389 °C | 0.0589 °C |
| UniProt A2RU37 | 3.14 °C | – |
| OPA3 (UniProt Q9H6K4) | 1.38 °C | – |
| UniProt Q9NYM9 | 1.03 °C | 0.299 °C |
| WRAP53 (UniProt Q9BUR4) | 0.209 °C | 1.5 °C |
| FHL2 (UniProt Q14192) | -0.924 °C | 0.451 °C |
| PPIH (UniProt O43447) | 0.116 °C | -0.282 °C |
| UBR5 (UniProt O95071) | -0.515 °C | -1 °C |
| UniProt Q6ZQX7 | 3.93 °C | – |
| PDCD2L (UniProt Q9BRP1) | -0.0941 °C | -1.19 °C |
| MIF (UniProt P14174) | -0.204 °C | -1.55 °C |
| IKBKAP (UniProt O95163) | -0.218 °C | 0.718 °C |
| MTM1 (UniProt Q13496) | 0.587 °C | 0.62 °C |
| TSFM (UniProt P43897) | 0.518 °C | -0.264 °C |
| ASPH (UniProt Q12797) | 1.92 °C | 0.308 °C |
| CKMT1A (UniProt P12532) | 0.122 °C | 0.142 °C |
| HSDL2 (UniProt Q6YN16) | 0.471 °C | -0.397 °C |
| PPA1 (UniProt Q15181) | – | -0.245 °C |
| CCT8 (UniProt P50990) | -0.805 °C | -0.4 °C |
| PHB2 (UniProt Q99623) | 2.69 °C | -0.807 °C |
| UniProt P51911 | -0.353 °C | -0.464 °C |
| PREP (UniProt P48147) | -0.702 °C | 0.48 °C |
| UNK (UniProt Q9C0B0) | -0.341 °C | 0.886 °C |
| UniProt Q02952 | -1.9 °C | – |
| INPPL1 (UniProt O15357) | -0.582 °C | -0.892 °C |

| Target | melting temperature shift [1] | melting temperature shift [2] |
| --- | --- | --- |
| RPA3 (UniProt P35244) | -1.56 °C | 0.849 °C |
| RNF14 (UniProt Q9UBS8) | -0.505 °C | -0.0503 °C |
| RBM8A (UniProt Q9Y5S9) | -0.0823 °C | 1.42 °C |
| UniProt Q99549 | – | 0.885 °C |
| BRAP (UniProt Q7Z569) | -0.944 °C | 1.82 °C |
| TANC2 (UniProt Q9HCD6) | 0.707 °C | – |
| NSFL1C (UniProt Q9UNZ2) | -0.952 °C | -0.266 °C |
| UniProt P28161 | -0.135 °C | 0.158 °C |
| ETHE1 (UniProt O95571) | -0.0939 °C | 1.6 °C |
| HSD17B10 (UniProt Q99714) | 0.646 °C | 3.61 °C |
| UniProt Q9UP38 | – | -2.85 °C |
| TCEB2 (UniProt Q15370) | -0.5 °C | 0.345 °C |
| PPIB (UniProt P23284) | 0.736 °C | 0.339 °C |
| GTSE1 (UniProt Q9NYZ3) | 1.12 °C | – |
| UniProt O00160 | – | -1.2 °C |
| EMD (UniProt P50402) | 1.04 °C | 0.96 °C |
| AHCYL2 (UniProt Q96HN2) | 2.02 °C | -3.59 °C |
| FDFT1 (UniProt P37268) | 1.17 °C | 0.148 °C |
| UniProt Q96B96 | 4.86 °C | – |
| CLPB (UniProt Q9H078) | 0.766 °C | -0.222 °C |
| SEC61B (UniProt P60468) | 2.74 °C | – |
| PSMD6 (UniProt Q15008) | -0.729 °C | -0.974 °C |
| UniProt Q8IXT5 | 0.533 °C | 1.69 °C |
| STAT3 (UniProt P40763) | -0.424 °C | -0.514 °C |
| UniProt Q6ZN28 | -0.141 °C | 0.344 °C |
| TOLLIP (UniProt Q9H0E2) | 0.204 °C | 0.193 °C |
| AGFG1 (UniProt P52594) | -1.04 °C | -0.0377 °C |

A few values from above.
Entry of PPIB (UniProt P23284) under melting temperature shift [1]: 0.736 °C
Entry of ETHE1 (UniProt O95571) under melting temperature shift [1]: -0.0939 °C
Entry of STAT3 (UniProt P40763) under melting temperature shift [1]: -0.424 °C
Entry of UniProt Q6ZN28 under melting temperature shift [2]: 0.344 °C

Many values rest on one well or one pass, so single values are uncertain.
